This note sets out measurements from US8546537B2, “Streptavidin having low immunogenicity and use thereof” (The University of Tokyo, priority 2009, dated 2013).

The data set can be described thus: Isothermal Titration calorimetry (ITC) of B5209B mouse-scFv-mcSA414 and biotin. The class given is binding. The note with it: 25° C., PBS.

B1: B5209B mouse-scFv-mcSA414: fusion of anti-ROBO1 monoclonal antibody B5209B mouse scFv and mcSA414, SEQ ID NO: 16 (protein, listed as Mus sp.)
chain: MAEVQLVESGGGVVQPGGSLKLSCAASGFTFSTYDMSWVRQTPDKRLELVATINSNGGSTYYPDSVKGRFTSSRDNAKNILYLQMSSLKSEDTAMYYCAREALLRPPYYALDYWGQGTSVTVSSAGGGGSGGGGSGGGGSDILDIQMTQSPASLSASVGETVTITCGASENIYGALTWYQRKQGKSPQLLIYGAINLADDKSSRFSGSGSGRQYSLKISSLHPDDVATYYCQNVLSTPFTFGSGTKLEIKAAGSSGSGSAAEAGITGTWSNQLGSTFIVTAGADGALTGTYESAVGNAESRYVLTGRYDSAPATDGSGTALGWTVAWKNNSKNAHSATTWSGQYVGGADAKINTQWLLTSGTTQANAWKSTLVGHDTFTKVKPSAASGARHHHHHH
For the molecule B1, the “amount of enthalpy change (ΔH)” value is -25.5 kJ/mol and the “amount of entropy change (ΔS)” value is on record as “less than the detection limit”.
